The other results are listed elsewhere or left out.
Legend:
Experiment in all cases: log2 fold change, soluble protein after heating vs DMSO (PISA); higher = thermal stabilisation; K562 lysate, 10 uM; active = over 0.2 and 3.5 SD of the protein, either way, in both replicates (recomputed)
[1] = compound: CCCS(=O)(=O)Nc1ccc(F)c(C(=O)c2c[nH]c3ncc(-c4ccc(Cl)cc4)cc23)c1F [vemurafenib]
Procedure, shortened: (§1)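 K562 pellets were dounce-homogenised in PBS pH 7.4 with 1 mM MgCl2, and the crude extract at 1 mg/mL protein was treated with 10 μM compound for 30 min. Aliquots were heated for 3 min across 48°C-58°C, pooled, and brought to 0.5% NP-40 at 4°C; soluble protein was the supernatant after 21,000xg for 90 min. Soluble protein was quantified by TMTpro 16plex LC-MS/MS with channel sums equalised, and reported as log2 fold change in thermal stability against DMSO controls, with values from duplicates.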

Sequences of proteins named here, by UniProt entry; tags and fusion partners are left off. A change or cut given only in a name is not applied to a line headed by its entry.
UniProt P10619: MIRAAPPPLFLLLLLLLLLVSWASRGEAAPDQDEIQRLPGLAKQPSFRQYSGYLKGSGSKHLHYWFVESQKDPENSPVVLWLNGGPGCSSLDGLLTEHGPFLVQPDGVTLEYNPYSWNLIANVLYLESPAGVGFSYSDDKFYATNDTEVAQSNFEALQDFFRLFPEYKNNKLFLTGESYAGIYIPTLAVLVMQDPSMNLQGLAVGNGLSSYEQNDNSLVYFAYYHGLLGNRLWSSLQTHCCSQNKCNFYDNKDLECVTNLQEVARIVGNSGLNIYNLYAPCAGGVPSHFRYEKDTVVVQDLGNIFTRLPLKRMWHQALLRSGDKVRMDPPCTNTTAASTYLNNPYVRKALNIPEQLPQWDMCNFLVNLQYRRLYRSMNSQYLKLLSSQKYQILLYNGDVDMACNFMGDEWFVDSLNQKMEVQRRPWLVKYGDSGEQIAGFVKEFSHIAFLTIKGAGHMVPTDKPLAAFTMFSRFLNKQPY
UniProt Q2TBE0: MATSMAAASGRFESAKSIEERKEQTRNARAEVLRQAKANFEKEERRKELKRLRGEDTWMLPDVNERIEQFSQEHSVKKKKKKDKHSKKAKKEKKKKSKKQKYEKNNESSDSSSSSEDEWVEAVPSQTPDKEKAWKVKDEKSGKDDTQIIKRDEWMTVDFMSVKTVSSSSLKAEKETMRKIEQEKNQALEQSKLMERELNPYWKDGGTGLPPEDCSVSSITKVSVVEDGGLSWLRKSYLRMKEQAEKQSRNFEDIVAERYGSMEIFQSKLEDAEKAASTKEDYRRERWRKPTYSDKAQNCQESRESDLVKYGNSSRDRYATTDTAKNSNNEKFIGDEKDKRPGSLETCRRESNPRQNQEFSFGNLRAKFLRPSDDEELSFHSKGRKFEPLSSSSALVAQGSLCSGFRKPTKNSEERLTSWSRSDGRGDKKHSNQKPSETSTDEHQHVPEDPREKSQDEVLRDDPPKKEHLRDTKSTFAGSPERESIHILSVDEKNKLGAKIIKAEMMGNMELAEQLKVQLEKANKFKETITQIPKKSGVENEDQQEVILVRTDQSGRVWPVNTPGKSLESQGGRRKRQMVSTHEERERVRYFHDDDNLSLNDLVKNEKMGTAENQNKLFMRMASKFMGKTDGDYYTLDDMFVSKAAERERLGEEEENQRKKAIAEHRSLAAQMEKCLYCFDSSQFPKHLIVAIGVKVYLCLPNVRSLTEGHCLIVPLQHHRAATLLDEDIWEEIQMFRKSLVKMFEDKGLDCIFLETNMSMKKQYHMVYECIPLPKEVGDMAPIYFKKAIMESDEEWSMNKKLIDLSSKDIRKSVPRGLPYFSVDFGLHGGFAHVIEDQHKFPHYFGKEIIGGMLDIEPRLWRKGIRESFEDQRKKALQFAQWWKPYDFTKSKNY
UniProt Q8TB03: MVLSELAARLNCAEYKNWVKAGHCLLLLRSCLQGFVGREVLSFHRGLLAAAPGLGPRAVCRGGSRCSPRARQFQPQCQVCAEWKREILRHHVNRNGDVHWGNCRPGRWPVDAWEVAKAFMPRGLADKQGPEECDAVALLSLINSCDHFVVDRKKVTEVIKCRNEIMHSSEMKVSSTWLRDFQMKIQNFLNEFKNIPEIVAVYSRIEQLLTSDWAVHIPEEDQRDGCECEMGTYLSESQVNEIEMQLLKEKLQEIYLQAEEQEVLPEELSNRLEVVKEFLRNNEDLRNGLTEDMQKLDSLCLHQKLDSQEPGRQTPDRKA
UniProt P67870, whole entry, looked up: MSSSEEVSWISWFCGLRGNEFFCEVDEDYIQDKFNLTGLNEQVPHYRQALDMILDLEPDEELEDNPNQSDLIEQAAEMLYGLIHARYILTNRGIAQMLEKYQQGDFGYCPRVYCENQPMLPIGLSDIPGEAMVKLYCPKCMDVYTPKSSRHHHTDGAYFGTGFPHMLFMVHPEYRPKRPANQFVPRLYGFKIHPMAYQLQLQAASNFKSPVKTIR
UniProt O43310: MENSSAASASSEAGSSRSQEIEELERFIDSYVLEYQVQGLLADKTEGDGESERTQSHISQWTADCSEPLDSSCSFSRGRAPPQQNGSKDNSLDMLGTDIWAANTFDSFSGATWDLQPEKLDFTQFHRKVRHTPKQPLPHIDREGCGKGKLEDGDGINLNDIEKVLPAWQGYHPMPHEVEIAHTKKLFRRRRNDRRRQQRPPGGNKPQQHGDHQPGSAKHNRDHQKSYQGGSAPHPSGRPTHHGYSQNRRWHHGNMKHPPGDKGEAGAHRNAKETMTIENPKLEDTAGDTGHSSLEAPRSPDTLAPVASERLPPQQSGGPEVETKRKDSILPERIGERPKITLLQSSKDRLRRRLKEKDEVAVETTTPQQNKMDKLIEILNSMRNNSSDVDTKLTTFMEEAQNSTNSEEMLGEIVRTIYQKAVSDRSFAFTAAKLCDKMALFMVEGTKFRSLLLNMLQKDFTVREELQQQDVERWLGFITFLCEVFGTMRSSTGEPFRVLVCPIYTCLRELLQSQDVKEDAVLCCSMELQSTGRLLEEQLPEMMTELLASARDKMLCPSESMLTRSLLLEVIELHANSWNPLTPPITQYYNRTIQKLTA
UniProt P0DMU9: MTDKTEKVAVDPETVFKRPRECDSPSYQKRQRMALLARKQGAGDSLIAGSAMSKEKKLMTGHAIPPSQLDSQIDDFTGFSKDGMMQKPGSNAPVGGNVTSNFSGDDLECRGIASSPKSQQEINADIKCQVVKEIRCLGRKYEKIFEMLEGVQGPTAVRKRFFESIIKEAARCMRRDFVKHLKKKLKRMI
UniProt P32929, whole entry, looked up: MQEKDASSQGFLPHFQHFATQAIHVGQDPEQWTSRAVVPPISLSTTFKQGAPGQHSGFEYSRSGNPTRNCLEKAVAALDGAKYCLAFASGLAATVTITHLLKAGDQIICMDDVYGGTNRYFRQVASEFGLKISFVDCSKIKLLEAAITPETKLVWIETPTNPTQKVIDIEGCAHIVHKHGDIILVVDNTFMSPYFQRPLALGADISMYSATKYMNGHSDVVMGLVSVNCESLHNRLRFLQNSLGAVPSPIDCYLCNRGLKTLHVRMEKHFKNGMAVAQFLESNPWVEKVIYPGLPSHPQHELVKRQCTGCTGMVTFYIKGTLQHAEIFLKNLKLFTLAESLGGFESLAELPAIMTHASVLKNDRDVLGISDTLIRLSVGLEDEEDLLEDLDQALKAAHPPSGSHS
UniProt P49674: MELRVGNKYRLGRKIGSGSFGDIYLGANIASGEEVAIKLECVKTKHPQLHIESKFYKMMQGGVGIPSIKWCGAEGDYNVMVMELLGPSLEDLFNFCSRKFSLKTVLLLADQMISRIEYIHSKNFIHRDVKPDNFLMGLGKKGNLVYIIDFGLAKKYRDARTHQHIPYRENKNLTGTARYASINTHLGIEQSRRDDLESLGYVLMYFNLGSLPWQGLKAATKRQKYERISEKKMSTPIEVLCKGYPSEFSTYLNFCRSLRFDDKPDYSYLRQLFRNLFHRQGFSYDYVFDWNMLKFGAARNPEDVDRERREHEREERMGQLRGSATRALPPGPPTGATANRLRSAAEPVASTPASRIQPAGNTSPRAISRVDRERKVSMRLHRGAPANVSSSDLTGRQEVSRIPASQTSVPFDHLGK
UniProt Q70SY1: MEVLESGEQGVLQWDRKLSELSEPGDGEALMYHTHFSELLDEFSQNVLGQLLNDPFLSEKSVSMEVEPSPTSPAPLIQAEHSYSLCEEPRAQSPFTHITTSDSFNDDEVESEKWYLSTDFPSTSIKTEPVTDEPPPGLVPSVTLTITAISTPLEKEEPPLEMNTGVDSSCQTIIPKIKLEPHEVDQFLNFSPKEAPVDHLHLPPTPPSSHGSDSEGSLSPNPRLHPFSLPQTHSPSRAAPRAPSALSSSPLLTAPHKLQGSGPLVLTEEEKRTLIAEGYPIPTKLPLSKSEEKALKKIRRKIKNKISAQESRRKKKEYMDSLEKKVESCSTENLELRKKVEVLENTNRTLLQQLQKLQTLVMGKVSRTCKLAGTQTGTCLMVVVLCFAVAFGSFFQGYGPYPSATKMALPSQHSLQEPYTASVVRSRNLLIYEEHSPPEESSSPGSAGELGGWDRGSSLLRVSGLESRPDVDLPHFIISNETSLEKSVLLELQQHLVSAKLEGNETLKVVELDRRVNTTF
UniProt P55060: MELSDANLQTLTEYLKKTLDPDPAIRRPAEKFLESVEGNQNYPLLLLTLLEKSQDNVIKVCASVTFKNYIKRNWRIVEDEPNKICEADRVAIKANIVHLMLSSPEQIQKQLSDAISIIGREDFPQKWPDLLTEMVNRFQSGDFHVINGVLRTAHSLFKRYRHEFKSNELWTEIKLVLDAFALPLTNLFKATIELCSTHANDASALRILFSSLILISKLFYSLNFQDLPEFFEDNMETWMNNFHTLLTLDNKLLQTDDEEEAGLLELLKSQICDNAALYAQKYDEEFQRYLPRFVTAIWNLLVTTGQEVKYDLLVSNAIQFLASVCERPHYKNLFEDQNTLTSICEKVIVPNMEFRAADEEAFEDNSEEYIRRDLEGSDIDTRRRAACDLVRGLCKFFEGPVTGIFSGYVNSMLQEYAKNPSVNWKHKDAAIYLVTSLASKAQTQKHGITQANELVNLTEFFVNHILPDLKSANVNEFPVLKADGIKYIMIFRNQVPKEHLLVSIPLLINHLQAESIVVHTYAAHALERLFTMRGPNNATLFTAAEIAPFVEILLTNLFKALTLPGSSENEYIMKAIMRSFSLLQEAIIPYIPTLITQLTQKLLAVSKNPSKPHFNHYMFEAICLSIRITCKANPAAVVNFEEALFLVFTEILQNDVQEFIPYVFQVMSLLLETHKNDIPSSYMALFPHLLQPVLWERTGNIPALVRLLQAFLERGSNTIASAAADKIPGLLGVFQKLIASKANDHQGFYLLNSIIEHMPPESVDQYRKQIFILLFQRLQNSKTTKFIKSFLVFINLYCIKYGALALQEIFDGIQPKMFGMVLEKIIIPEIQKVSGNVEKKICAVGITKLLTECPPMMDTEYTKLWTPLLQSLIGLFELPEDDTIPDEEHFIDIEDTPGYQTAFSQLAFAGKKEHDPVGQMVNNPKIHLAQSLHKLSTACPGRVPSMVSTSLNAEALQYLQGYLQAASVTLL
UniProt O75629: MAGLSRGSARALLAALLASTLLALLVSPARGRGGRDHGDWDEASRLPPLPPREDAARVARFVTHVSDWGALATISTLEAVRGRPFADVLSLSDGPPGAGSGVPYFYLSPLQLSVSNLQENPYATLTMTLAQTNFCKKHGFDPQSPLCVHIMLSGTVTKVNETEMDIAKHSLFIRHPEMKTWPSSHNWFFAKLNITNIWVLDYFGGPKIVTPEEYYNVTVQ
UniProt Q9BZJ0: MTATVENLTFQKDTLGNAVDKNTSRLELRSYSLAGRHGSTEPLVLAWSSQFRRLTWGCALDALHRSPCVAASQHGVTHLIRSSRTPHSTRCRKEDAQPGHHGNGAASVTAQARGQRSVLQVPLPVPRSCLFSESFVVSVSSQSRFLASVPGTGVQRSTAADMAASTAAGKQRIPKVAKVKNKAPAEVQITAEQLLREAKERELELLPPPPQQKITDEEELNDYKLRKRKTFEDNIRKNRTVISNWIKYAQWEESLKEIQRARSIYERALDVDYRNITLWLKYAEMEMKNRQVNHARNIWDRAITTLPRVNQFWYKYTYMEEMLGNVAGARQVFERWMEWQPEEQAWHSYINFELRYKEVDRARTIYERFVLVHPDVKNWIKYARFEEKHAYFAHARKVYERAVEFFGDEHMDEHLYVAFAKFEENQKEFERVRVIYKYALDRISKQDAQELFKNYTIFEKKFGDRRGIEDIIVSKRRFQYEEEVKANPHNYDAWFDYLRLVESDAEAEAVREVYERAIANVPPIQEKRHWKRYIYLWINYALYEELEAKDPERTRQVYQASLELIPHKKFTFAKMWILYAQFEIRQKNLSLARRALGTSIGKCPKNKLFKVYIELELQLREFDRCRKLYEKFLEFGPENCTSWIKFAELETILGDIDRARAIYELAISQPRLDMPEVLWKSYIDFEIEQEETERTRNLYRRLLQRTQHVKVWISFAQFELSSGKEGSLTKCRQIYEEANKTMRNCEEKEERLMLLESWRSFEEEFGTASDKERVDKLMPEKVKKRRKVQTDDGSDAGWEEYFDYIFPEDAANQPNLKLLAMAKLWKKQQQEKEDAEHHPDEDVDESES
UniProt Q9UBG3: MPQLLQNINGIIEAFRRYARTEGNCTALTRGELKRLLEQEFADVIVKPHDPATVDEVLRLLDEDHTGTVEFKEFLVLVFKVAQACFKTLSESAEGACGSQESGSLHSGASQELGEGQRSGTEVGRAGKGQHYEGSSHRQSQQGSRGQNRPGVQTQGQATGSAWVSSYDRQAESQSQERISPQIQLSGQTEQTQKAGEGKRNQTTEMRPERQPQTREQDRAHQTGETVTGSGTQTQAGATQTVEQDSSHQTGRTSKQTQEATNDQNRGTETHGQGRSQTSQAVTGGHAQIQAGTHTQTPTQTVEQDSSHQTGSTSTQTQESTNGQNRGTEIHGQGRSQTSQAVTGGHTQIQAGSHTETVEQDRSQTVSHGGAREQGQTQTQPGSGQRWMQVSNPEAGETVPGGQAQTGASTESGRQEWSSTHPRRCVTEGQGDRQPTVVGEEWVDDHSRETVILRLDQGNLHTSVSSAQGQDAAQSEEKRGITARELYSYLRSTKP

[2] = compound: CCCS(=O)(=O)Nc1ccc(F)c(C(=O)c2c[nH]c3ncc(Cl)cc23)c1F
Procedure, shortened: as §1

[3] = compound: CCN(CCCOc1ccc2c(Nc3cc(CC(=O)Nc4cccc(F)c4)[nH]n3)ncnc2c1)CCOP(=O)(O)O [barasertib]
Procedure, shortened: as §1

[4] = compound: CC[C@@H]1C(=O)N(C)c2cnc(Nc3ccc(C(=O)NC4CCN(C)CC4)cc3OC)nc2N1C1CCCC1
Procedure, shortened: as §1

[5] = compound: CC[C@@H]1C(=O)N(C)c2cnc(Nc3ccc(C(=O)N[C@H]4CC[C@H](N5CCN(CC6CC6)CC5)CC4)cc3OC)nc2N1C(C)C [volasertib]
Procedure, shortened: as §1

[6] = compound: CCn1c(C(=O)N(C2CC2)C2CC2)cc2c3c(ncn3C)c(Nc3cc(C)n(C)n3)nc21
Procedure, shortened: as §1

[7] = compound: CCn1cc(-c2ccnc3[nH]c(-c4cccc(CN(C)C)c4)cc23)c(-c2ccc(NC(=O)N(C)C)cc2)n1
Procedure, shortened: as §1

[8] = compound: CN1CCC(CNc2ccc3ncc(-c4cccc(OC(F)(F)F)c4)n3n2)CC1
Procedure, shortened: as §1

[9] = compound: CN1CCN(CCOc2cc(OC3CCOCC3)c3c(Nc4c(Cl)ccc5c4OCO5)ncnc3c2)CC1 [saracatinib]
Procedure, shortened: as §1

[10] = compound: CN1CCN(c2nc(C3=C(c4c[nH]c5ccccc45)C(=O)NC3=O)c3ccccc3n2)CC1 [sotrastaurin]
Procedure, shortened: as §1

Measured: log2 fold change

CTSA (UniProt P10619)
inactive: [1] 0.025 | [2] 0.017 | [3] 0.048 | [4] -0.008 | [5] -0.071 | [6] -0.003 | [7] -0.002 | [8] -0.003 | [9] 0.001 | [10] -0.02

CRELD1 isoform 2 (UniProt Q96HD1)
inactive: [1] 0.194 | [2] -0.028 | [3] -0.087 | [4] -0.13 | [5] 0.051 | [6] 0.002 | [7] 0.05 | [8] 0.033 | [9] -0.157

CYB5R2 (UniProt Q6BCY4)
inactive: [1] 0.078 | [2] -0.014 | [3] 0.055 | [4] 0.029 | [5] 0.016 | [6] 0.01 | [7] -0.068 | [8] 0.079 | [9] -0.017 | [10] 0.02

CRKL (UniProt P46109)
inactive: [1] 0.005 | [2] -0.015 | [3] -0.042 | [4] 0.05 | [5] 0.031 | [6] -0.03 | [7] 0.014 | [8] 0.084 | [9] 0.014 | [10] 0.012

CTDP1 (UniProt Q9Y5B0)
inactive: [1] -0.027 | [2] 0.03 | [3] 0.036 | [4] -0.019 | [5] -0.014 | [6] 0.027 | [7] 0.09 | [8] 0.003 | [9] 0.013 | [10] 0.019

CWF19L2 (UniProt Q2TBE0)
inactive: [1] -0.042 | [2] -0.177 | [3] 0.091 | [4] 0.082 | [5] -0.079 | [6] 0.013 | [7] -0.055 | [8] -0.017 | [9] -0.01 | [10] -0.014

CRBN (UniProt Q96SW2)
inactive: [1] -0.026 | [2] 0 | [3] 0.081 | [4] 0.045 | [5] -0.034 | [6] -0.03 | [7] -0.075 | [8] 0.073 | [9] 0.026 | [10] 0.013

CXorf38 (UniProt Q8TB03)
inactive: [1] 0.017 | [2] -0.015 | [3] -0.024 | [4] 0.038 | [5] 0.013 | [6] -0.027 | [7] -0.059 | [8] 0.04 | [9] 0.105 | [10] 0.018

CSNK2B (UniProt P67870)
inactive: [1] -0.042 | [2] 0.03 | [3] -0.032 | [4] -0.007 | [5] -0.038 | [6] 0.015 | [7] 0.01 | [8] 0.124 | [9] -0.066 | [10] -0.029

CTIF (UniProt O43310)
inactive: [1] -0.1

CYFIP1 (UniProt Q7L576)
inactive: [1] -0.002 | [2] 0.011 | [3] 0 | [4] 0.015 | [5] 0 | [6] 0.035 | [7] -0.102 | [8] 0.015 | [9] 0.002 | [10] -0.013

CUL2 isoform 2 (UniProt Q13617)
inactive: [1] 0.009 | [2] 0.003 | [3] 0.02 | [4] -0.023 | [5] -0.022 | [6] 0.011 | [7] 0.03 | [8] 0.011 | [9] 0.001 | [10] -0.008

CTBP2 isoform 2 (UniProt P56545)
inactive: [1] 0.015 | [2] 0.055 | [3] 0.091 | [4] -0.006 | [5] 0.018 | [6] 0.012 | [7] -0.006 | [8] 0.015 | [9] -0.013 | [10] -0.012

CTSL (UniProt P07711)
inactive: [1] -0.014 | [2] 0.001 | [3] -0.003 | [4] 0.051 | [5] 0.019 | [6] -0.022 | [7] -0.102 | [8] 0.022 | [9] -0.049 | [10] -0.049

CUL7 isoform 2 (UniProt Q14999)
inactive: [1] 0.036 | [2] 0.149 | [3] 0.076 | [4] -0.129 | [5] -0.172 | [6] 0.043 | [7] 0.038 | [8] -0.111 | [9] 0.034 | [10] -0.048

CT55 (UniProt Q8WUE5)
inactive: [1] -0.086 | [2] -0.101 | [3] 0.088 | [4] -0.087 | [5] 0.036 | [6] 0.041 | [7] -0.121 | [8] -0.001 | [9] -0.045 | [10] 0.1

CT45A10 (UniProt P0DMU9)
inactive: [1] -0.071 | [2] 0.012 | [3] -0.014 | [4] -0.013 | [5] 0.003 | [6] 0.068 | [7] 0.043 | [8] -0.01 | [9] 0.019 | [10] 0.04

CTH (UniProt P32929)
inactive: [1] 0.048 | [2] 0.018 | [3] -0.015 | [4] 0.028 | [5] 0.036 | [6] -0.026 | [7] -0.089 | [8] 0.062 | [9] -0.031 | [10] 0.003

CUL4B (UniProt Q13620)
inactive: [1] -0.01 | [2] 0.005 | [3] 0.012 | [4] 0.036 | [5] 0.003 | [6] 0.004 | [7] -0.105 | [8] 0.074 | [9] 0.007 | [10] 0.003

CTSH (UniProt P09668)
inactive: [1] 0.006 | [2] 0.002 | [3] 0.018 | [4] 0.107 | [5] 0.039 | [6] 0.01 | [7] 0.101 | [8] 0.009 | [9] -0.034 | [10] 0.004

CYB5R4 (UniProt Q7L1T6)
inactive: [1] -0.071 | [2] -0.027 | [3] 0.332 | [4] 0.023 | [5] -0.034 | [6] 0.001 | [7] -0.049 | [8] 0.014 | [9] 0.024 | [10] 0.036

Quoted from the listing (2 entries):
CTH (UniProt P32929)
inactive: [1] 0.048 | [2] 0.018 | [3] -0.015 | [4] 0.028 | [5] 0.036 | [6] -0.026 | [7] -0.089 | [8] 0.062 | [9] -0.031 | [10] 0.003

CUL4B (UniProt Q13620)
inactive: [1] -0.01 | [2] 0.005 | [3] 0.012 | [4] 0.036 | [5] 0.003 | [6] 0.004 | [7] -0.105 | [8] 0.074 | [9] 0.007 | [10] 0.003

(next part)

CSNK1E (UniProt P49674)
inactive: [1] -0.013 | [2] -0.038 | [3] 0.029 | [4] 0.135 | [5] -0.01 | [6] 0.11 | [7] -0.013 | [8] 0.237 | [9] 0.069 | [10] 0.061

CREB3L2 (UniProt Q70SY1)
inactive: [1] 0.081 | [2] -0.05 | [3] 0.065 | [4] 0.068 | [5] 0.014 | [6] -0.094 | [7] -0.224 | [8] 0.182 | [9] 0.057

CSK (UniProt P41240)
inactive: [1] 0.43 | [2] 0.304 | [3] 0.187 | [4] -0.046 | [5] -0.09 | [6] -0.068 | [7] 0.015 | [8] 0.096 | [9] 0.37 | [10] -0.043

CSE1L (UniProt P55060)
inactive: [1] -0.017 | [2] 0.007 | [3] -0.005 | [4] -0.059 | [5] -0.009 | [6] 0.03 | [7] -0.032 | [8] -0.011 | [9] 0.014 | [10] 0.012

CREG1 (UniProt O75629)
inactive: [1] -0.022 | [2] 0.004 | [3] 0.037 | [4] 0.055 | [5] 0.041 | [6] -0.032 | [7] 0.006 | [8] 0.046 | [9] 0 | [10] -0.02

CRYZL1 (UniProt O95825)
inactive: [1] -0.029 | [2] 0.014 | [3] -0.01 | [4] 0.016 | [5] 0.028 | [6] -0.027 | [7] -0.041 | [8] 0.086 | [9] -0.013 | [10] 0.031

CYBA (UniProt P13498)
inactive: [1] 0.01 | [2] 0.011 | [3] 0.001 | [4] -0.032 | [5] 0.04 | [6] 0.002 | [7] 0.018 | [8] 0.038 | [9] -0.011 | [10] -0.015

CTSB (UniProt P07858)
inactive: [1] 0.049 | [2] 0.016 | [3] 0.021 | [4] -0.03 | [5] -0.027 | [6] -0.02 | [7] -0.041 | [8] 0.016 | [9] 0.005 | [10] -0.036

CRNKL1 (UniProt Q9BZJ0)
inactive: [1] -0.038 | [2] -0.128 | [3] 0.024 | [4] -0.199 | [5] -0.044 | [6] -0.071 | [7] 0.096 | [8] -0.016 | [9] 0.083 | [10] -0.078

CRNN (UniProt Q9UBG3)
inactive: [1] 0.939

From the supplement of paper PMC10849652
